The target in data set [1] is hnRNP-E1 (PCBP1) wild-type (Homo sapiens) (UniProt Q15365). The experiment in a line: EMSA. The note with it: 15 uM L-homocysteine; mutations 1 to 5 progressively quenched signal; purified recombinant protein; protein details: GST fusion (pGEX-4T-1, E. coli BL21); variant of 25-nt hnRNP-E1 mRNA 5'-UTR cis-element. (In general: A gel shift assay detects complexes by their altered migration in electrophoresis.)

Protein sequences, listed by entry. Tags and fused reporters are not part of them.
UniProt Q15365, whole entry A205V: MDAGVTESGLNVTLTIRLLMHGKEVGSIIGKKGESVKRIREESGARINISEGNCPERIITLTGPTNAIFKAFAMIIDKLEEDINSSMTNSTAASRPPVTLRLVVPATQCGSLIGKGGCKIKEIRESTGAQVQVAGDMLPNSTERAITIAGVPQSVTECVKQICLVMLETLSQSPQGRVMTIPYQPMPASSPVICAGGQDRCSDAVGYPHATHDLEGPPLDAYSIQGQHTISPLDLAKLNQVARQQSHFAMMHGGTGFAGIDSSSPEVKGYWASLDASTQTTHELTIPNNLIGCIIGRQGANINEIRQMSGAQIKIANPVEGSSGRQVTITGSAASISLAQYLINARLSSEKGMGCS

In data set [2] the target is hnRNP-E1 (PCBP1) endogenous (Homo sapiens) (UniProt Q15365). The experiment in a line: pull-down. Conditions: protein in cells; protein details: endogenous in placental 1584 cells; label: 35S.
Data set [3] has as its target hnRNP-E1 (PCBP1) wild-type (Homo sapiens) (UniProt Q15365). The experiment in a line: binding assay. Conditions: purified recombinant protein, protein details: GST fusion (pGEX-4T-1, E. coli BL21), label: 35S.

Results on 6 sequences are retold here after patent US10093706.

For some assays here: The comparison behind a weaker result is the experiment's own reference, which may not be listed here. For some assays here: For at least one entry, the source does not settle the construct or the ends of the probe. For some assays here: Results from cells or extracts need not show a direct contact.

“CUCCCGCCCGCUCCCGCUCGCUUCC [25-nt cis-element mutation 3]”: the binding result in data set [1] is “binds more weakly”.

As to “CUUCCGCCCGCUUCCGCUCGCUCCC [25-nt cis-element mutation 4]”, in data set [1], the binding result is “binds more weakly”.

Consider “CUCCCGCCCGCUUCCGCUCGCUUCC [25-nt cis-element mutation 5]”, for which, in data set [1], the binding result is reported as “binds more weakly”.

For orientation: Kd means a measure of binding affinity in units of concentration. As to “CUCCCGCCCGCUCCCGCUCGCUCCC [25-nt hnRNP-E1 mRNA 5'-UTR cis-element]”, the binding result in data set [2] is listed as “binds”. In addition, the Kd worked out at 1.14 nM in data set [3] (10 uM L-homocysteine, Scatchard); 3.72 nM in data set [3] (25 uM L-homocysteine, 5 uM iron(II)); 6.5 nM in data set [3] (25 uM L-homocysteine, 25 uM iron(II)); 2.74 nM in data set [3] (25 uM L-homocysteine, no iron(II)); 0.62 nM in data set [3] (50 uM L-homocysteine, Scatchard); 2.38 nM in data set [3] (10 mM glutathione + 15 uM L-cysteine). For the same sequence, the Kd in data set [3] (10 mM glutathione + 15 uM L-homocysteine) stood at 1.18 nM; in data set [3] (no L-homocysteine, Scatchard, no gel-shift signal in this condition (FIG. 1B)), 1.93 nM.

Consider “CUCCCGCCCGCUUCCGCUCGCUCCC [25-nt cis-element mutation 2]”, for which, in data set [1], the binding result is “binds more weakly”.

“CUUCCGCCCGCUCCCGCUCGCUCCC [25-nt cis-element mutation 1]”: the binding result in data set [1] is recorded as “binds more weakly”.
